Measured values: publication PMC3510188
These are yes or no findings as the source states them, for the method shown. Binding seen in cells or lysates may run through a third protein. Some entries that bind do so weakly or less than the wild type.

Molecular target: T1, Ndp52 (human (endogenous in A549)) (UniProt Q13137)
T1 sequence: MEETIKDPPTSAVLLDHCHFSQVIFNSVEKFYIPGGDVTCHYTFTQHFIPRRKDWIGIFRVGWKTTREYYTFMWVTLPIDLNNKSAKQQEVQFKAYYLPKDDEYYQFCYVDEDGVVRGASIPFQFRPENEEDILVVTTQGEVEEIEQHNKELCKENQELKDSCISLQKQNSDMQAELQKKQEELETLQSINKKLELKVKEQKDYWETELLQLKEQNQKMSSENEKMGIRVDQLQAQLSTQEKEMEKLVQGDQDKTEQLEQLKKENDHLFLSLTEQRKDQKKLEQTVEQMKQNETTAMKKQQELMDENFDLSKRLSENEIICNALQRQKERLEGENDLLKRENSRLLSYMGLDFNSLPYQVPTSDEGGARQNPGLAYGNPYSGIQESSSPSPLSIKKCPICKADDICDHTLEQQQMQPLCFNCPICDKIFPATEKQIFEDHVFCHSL
Assay: co-IP; exponentially growing A549 cells in the basal state lysed in IGEPAL IP buffer; endogenous proteins; immunoprecipitation for 4 hours with 1 µg anti-Ndp52 or non-specific rabbit IgG pre-bound to protein A/G agarose, three washes; blots

B1: TBK1 (TANK-binding kinase 1) (protein, UniProt Q9UHD2 1-729)
chain: MQSTSNHLWLLSDILGQGATANVFRGRHKKTGDLFAIKVFNNISFLRPVDVQMREFEVLKKLNHKNIVKLFAIEEETTTRHKVLIMEFCPCGSLYTVLEEPSNAYGLPESEFLIVLRDVVGGMNHLRENGIVHRDIKPGNIMRVIGEDGQSVYKLTDFGAARELEDDEQFVSLYGTEEYLHPDMYERAVLRKDHQKKYGATVDLWSIGVTFYHAATGSLPFRPFEGPRRNKEVMYKIITGKPSGAISGVQKAENGPIDWSGDMPVSCSLSRGLQVLLTPVLANILEADQEKCWGFDQFFAETSDILHRMVIHVFSLQQMTAHKIYIHSYNTATIFHELVYKQTKIISSNQELIYEGRRLVLEPGRLAQHFPKTTEENPIFVVSREPLNTIGLIYEKISLPKVHPRYDLDGDASMAKAITGVVCYACRIASTLLLYQELMRKGIRWLIELIKDDYNETVHKKTEVVITLDFCIRNIEKTVKVYEKLMKINLEAAELGEISDIHTKLLRLSSSQGTIETSLQDIDSRLSPGGSLADAWAHQEGTHPKDRNVEKLQVLLNCMTEIYYQFKKDKAERRLAYNEEQIHKFDKQKLYYHATKAMTHFTDECVKKYEAFLNKSEEWIRKMLHLRKQLLSLTNQCFDIEEEVSKYQEYTNELQETLPQKMFTASSGIKHTMTPIYPSSNTLVEMTLGMKKLKEEMEGVVKELAENNHILERFGSLTMDGGLRNVDCL
binding: binds
